Assay results as given in publication PMC9916828.
These are yes or no findings as the source states them, for the method shown. For some of these results: Binding seen in cells or lysates may run through a third protein. Some binding calls cover weakened binding; strength is not graded here.

By UniProt entry, the sequences of proteins in these tests, tags left out.
UniProt P19785: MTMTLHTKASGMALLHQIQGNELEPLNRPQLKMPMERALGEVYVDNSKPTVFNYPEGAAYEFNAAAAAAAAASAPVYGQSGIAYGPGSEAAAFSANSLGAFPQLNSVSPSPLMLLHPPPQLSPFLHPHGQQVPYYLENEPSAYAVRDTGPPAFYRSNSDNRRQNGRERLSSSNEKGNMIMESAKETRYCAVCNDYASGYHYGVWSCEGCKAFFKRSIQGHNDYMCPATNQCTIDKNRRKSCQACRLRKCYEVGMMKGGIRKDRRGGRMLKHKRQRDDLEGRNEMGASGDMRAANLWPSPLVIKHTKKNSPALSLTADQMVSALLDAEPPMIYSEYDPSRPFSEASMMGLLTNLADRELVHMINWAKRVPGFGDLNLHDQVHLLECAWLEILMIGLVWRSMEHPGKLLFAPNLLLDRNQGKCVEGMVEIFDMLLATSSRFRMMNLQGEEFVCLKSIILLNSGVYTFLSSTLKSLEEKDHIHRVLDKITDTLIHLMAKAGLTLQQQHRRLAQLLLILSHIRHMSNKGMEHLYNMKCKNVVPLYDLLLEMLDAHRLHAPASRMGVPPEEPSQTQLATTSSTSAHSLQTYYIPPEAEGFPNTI
UniProt P37238: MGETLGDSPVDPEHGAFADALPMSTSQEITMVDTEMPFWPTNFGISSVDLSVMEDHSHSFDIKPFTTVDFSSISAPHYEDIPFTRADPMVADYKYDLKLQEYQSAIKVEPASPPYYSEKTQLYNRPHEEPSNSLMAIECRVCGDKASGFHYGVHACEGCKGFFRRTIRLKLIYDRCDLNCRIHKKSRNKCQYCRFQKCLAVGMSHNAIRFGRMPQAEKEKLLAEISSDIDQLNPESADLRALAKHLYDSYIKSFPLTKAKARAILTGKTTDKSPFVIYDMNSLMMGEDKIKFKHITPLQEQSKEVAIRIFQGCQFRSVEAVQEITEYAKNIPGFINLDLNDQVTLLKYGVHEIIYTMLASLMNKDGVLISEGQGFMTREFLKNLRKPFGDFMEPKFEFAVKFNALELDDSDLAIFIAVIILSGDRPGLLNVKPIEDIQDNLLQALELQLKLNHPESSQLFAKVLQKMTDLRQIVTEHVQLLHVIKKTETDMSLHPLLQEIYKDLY
UniProt P37231: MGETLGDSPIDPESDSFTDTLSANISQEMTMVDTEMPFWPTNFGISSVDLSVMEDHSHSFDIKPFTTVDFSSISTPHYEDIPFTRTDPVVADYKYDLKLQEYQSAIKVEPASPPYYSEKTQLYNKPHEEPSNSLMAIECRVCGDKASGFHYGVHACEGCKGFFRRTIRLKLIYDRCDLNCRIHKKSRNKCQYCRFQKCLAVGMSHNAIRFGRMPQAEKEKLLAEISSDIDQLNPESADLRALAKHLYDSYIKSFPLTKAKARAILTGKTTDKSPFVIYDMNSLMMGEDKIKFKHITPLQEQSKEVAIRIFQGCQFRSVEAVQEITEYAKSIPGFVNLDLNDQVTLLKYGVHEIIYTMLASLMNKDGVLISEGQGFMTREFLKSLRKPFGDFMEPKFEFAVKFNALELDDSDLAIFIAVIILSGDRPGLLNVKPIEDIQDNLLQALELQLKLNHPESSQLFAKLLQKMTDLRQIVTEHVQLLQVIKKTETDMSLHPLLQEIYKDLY

T1: splicing factor proline/glutamine-rich (SFPQ), endogenous mouse (mouse (endogenous in cultured cortical neurons)) (UniProt Q8VIJ6)
T1 sequence: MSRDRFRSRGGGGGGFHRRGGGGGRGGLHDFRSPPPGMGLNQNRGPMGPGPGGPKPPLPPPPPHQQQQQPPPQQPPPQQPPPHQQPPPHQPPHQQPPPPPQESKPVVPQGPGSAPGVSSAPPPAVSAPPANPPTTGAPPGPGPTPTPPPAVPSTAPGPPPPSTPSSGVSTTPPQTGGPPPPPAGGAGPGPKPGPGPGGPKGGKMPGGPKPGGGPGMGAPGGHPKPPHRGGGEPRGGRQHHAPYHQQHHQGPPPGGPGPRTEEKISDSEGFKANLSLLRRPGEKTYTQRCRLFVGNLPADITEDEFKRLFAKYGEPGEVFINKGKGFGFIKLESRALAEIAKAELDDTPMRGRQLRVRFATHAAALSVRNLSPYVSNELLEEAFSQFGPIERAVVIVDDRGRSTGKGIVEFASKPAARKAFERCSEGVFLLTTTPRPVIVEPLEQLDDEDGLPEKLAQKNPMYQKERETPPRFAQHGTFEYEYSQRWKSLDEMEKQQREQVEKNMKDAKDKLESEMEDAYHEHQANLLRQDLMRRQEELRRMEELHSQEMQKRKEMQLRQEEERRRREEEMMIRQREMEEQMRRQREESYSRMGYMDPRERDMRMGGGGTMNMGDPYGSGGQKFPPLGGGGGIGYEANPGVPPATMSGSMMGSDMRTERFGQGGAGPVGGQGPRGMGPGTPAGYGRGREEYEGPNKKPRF

T2: topoisomerase 1 (TOP1), endogenous mouse (mouse (endogenous in brain and cultured neurons)) (UniProt Q04750)
T2 sequence: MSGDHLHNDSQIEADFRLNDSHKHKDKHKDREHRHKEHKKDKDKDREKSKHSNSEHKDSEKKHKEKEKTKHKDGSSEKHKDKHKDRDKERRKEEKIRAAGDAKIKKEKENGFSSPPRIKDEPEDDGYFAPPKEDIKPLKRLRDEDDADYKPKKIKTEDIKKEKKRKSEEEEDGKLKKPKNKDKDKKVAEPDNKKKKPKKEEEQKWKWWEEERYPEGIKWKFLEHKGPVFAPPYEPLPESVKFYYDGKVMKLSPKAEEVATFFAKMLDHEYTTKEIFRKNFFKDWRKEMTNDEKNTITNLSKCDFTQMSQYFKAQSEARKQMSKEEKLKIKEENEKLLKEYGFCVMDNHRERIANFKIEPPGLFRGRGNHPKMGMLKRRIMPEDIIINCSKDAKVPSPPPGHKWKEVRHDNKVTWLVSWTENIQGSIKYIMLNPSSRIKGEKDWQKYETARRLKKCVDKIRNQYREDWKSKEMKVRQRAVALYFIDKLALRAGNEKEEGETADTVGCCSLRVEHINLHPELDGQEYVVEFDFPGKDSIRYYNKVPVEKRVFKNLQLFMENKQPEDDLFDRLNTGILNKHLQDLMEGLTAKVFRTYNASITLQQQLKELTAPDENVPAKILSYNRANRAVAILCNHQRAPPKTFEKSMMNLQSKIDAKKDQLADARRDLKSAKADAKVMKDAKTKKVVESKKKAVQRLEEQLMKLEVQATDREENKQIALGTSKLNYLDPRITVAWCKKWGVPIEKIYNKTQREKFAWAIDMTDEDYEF


How the values were obtained:
[1] = target: estrogen receptor α (ERα), endogenous mouse (mouse (endogenous in cultured cortical neurons)) (UniProt P19785); experiment: proximity ligation; fixed, permeabilised cultured mouse cortical (and cerebellar) neurons from wild-type or L1 mutant mice; mouse L1 antibody C-2 with goat or rabbit antibodies against the partner, or rabbit L1 antibody ab12399 with mouse antibodies; cells treated with vehicle, 1 µM aprotinin, 50 µg/mL L1 antibody 557 or siRNAs
[2] = target: peroxisome proliferator-activated receptor γ (PPARγ), endogenous mouse (mouse (endogenous in brain and cultured neurons)) (UniProt P37238); experiment: as above
[3] = target: T1, splicing factor proline/glutamine-rich (SFPQ), endogenous mouse (mouse (endogenous in cultured cortical neurons)); experiment: as above
[4] = target: T2, topoisomerase 1 (TOP1), endogenous mouse (mouse (endogenous in brain and cultured neurons)); experiment: as above
[5] = target: recombinant full-length human PPARγ (PPARgamma FL) (human) (UniProt P37231); experiment: ELISA; TOP1 or PPARγ substrate-coated (25 µL of 10 or 20 µg/mL, overnight, 4 °C, 384-well plates), blocked with 2% BSA in PBS; increasing concentrations of His-tagged L1-ICD for 1 h at room temperature; detection with mouse L1 antibody C-2 and HRP-coupled secondary antibody; both purified
[6] = target: recombinant full-length human PPARγ (PPARgamma FL) (human) (UniProt P37231); experiment: ELISA; competition ELISA: 2.5 µM L1-ICD preincubated for 1 h without or with a five-fold molar excess of L1 peptides P1-P5, then incubated with substrate-coated TOP1 or PPARγ; detection with mouse L1 antibody C-2; both purified

Molecule	binding [2]	binding [4]	binding [6]	other results
L1 with an arginine-to-alanine exchange at position 687 (L1/687 mutant) (from UniProt P11627 20-1260)	binds	binds	–	binding [1]: binds; binding [3]: binds
recombinant His-tagged L1-ICD (intracellular domain of cell adhesion molecule L1) (from UniProt P11627 1147-1260) (domain or fragment)	–	–	binds	binding [5]: binds
L1 with a mutation of the dibasic sequence RKHSKR to SKHSSS at positions 858–863 (L1/858–863 mutant) (from UniProt P11627 20-1260)	binds	binds	–	–
CSVDVQFNEDGSFIGQYSGK [synthetic L1 peptide P4]	–	–	binds	–
CFIKRSKGGKYSVKDKEDTQVDSEARPMKDETFGE [synthetic L1 peptide P1]	–	–	binds	–
